Reference: paper PMC9392644
No constants are given. Whether binding was seen depends on the method and setting. Binding seen in cells or lysates may run through a third protein. Some binding calls cover weakened binding; strength is not graded here. Sequences can lack the tags named with a protein.

Protein sequences, listed by entry. Tags and fused reporters are not part of them.
UniProt P05412: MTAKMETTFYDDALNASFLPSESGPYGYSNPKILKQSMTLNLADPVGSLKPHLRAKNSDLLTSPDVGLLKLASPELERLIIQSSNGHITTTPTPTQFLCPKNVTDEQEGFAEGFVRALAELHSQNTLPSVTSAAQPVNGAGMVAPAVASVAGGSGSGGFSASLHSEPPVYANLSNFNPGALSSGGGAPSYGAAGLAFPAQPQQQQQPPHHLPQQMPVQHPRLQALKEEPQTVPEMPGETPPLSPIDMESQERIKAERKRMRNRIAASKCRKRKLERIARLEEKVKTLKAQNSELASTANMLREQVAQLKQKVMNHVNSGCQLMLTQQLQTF

Molecular target: Flag-tagged c-Jun/AP-1 (UniProt P05412)
Assay: co-IP; BCPAP cells cotransfected with His-tagged UHRF1 and Flag-tagged c-Jun; IP lysis buffer (20 mM Tris-HCl pH 8.0, 150 mM NaCl, 0.5% NP-40, 10% glycerol); lysate incubated with His-tag or Flag-tag antibody 3 h at 4°C, then Protein A/G beads 16 h at 4°C; bound proteins detected with His-tag or Flag-tag antibodies

binding: binds
B1: His-tagged UHRF1 (ubiquitin-like with PHD and ring-finger domain 1) (protein, UniProt Q96T88 1-793)
chain: MWIQVRTMDGRQTHTVDSLSRLTKVEELRRKIQELFHVEPGLQRLFYRGKQMEDGHTLFDYEVRLNDTIQLLVRQSLVLPHSTKERDSELSDTDSGCCLGQSESDKSSTHGEAAAETDSRPADEDMWDETELGLYKVNEYVDARDTNMGAWFEAQVVRVTRKAPSRDEPCSSTSRPALEEDVIYHVKYDDYPENGVVQMNSRDVRARARTIIKWQDLEVGQVVMLNYNPDNPKERGFWYDAEISRKRETRTARELYANVVLGDDSLNDCRIIFVDEVFKIERPGEGSPMVDNPMRRKSGPSCKHCKDDVNRLCRVCACHLCGGRQDPDKQLMCDECDMAFHIYCLDPPLSSVPSEDEWYCPECRNDASEVVLAGERLRESKKKAKMASATSSSQRDWGKGMACVGRTKECTIVPSNHYGPIPGIPVGTMWRFRVQVSESGVHRPHVAGIHGRSNDGAYSLVLAGGYEDDVDHGNFFTYTGSGGRDLSGNKRTAEQSCDQKLTNTNRALALNCFAPINDQEGAEAKDWRSGKPVRVVRNVKGGKNSKYAPAEGNRYDGIYKVVKYWPEKGKSGFLVWRYLLRRDDDEPGPWTKEGKDRIKKLGLTMQYPEGYLEALANREREKENSKREEEEQQEGGFASPRTGKGKWKRKSAGGGPSRAGSPRRTSKKTKVEPYSLTAQQSSLIREDKSNAKLWNEVLASLKDRPASGSPFQLFLSKVEETFQCICCQELVFRPITTVCQHNVCKDCLDRSFRAQVFSCPACRYDLGRSYAMQVNQPLQTVLNQLFPGYGNGR
